Weaker means in comparison with the reference protein, sequence or condition of that experiment. For part of these data: The exact form of at least one protein or probe is not confirmed.
Experiments:
Assay in all cases: EMSA
[1] = tested on: Cft1 + Pfs2 + Yth1 + Fip1; conditions: CPFpol (no Pap1); EMSA: 50 nM RNA, 0.25-4.0 uM protein, protein diluted in 10 mM HEPES pH 7.9, 150 mM NaCl, 0.5 mM Mg(OAc)2, plus 1x loading dye (orange G, glycerol, EDTA); 30 min on ice; recombinant protein; protein details: 3C-SII,3C-8H, untagged in CPFpol+Cft2; label: 5'-FAM
[2] = tested on: Cft1 + Pfs2 + Yth1 + Fip1 + Pap1; conditions: CPFpol; EMSA: 50 nM RNA, 0.25-4.0 uM protein, protein diluted in 10 mM HEPES pH 7.9, 150 mM NaCl, 0.5 mM Mg(OAc)2, plus 1x loading dye (orange G, glycerol, EDTA); 30 min on ice; recombinant protein; label: 5'-FAM
[3] = tested on: Ysh1 + Mpe1 + Yjr141w; conditions: EMSA: 50 nM RNA, 0.25-4.0 uM protein, protein diluted in 10 mM HEPES pH 7.9, 150 mM NaCl, 0.5 mM Mg(OAc)2, plus 1x loading dye (orange G, glycerol, EDTA); 30 min on ice; recombinant protein; label: 5'-FAM
[4] = tested on: Ysh1 + Mpe1; conditions: EMSA: 50 nM RNA, 0.25-4.0 uM protein, protein diluted in 10 mM HEPES pH 7.9, 150 mM NaCl, 0.5 mM Mg(OAc)2, plus 1x loading dye (orange G, glycerol, EDTA); 30 min on ice; recombinant protein; label: 5'-FAM

Measured: binding result

CGUUAUUUAUAUUUCAAAUUUUUCU [CYC1f EMSA probe]
binds more weakly: all assays above

AAGAACGUUAUUUAUAUUUCAAAUUUUUCUUUUUU [CYC1d EMSA probe]
binds more weakly: [3] | [4]
